Laboratory results published in patent US20220401521A1.
Results are given in words; binding and its absence hold for the method and conditions named. Binding can be weak; no strength is given.

Target: melanocortin receptor 2 (MC2R)
Experiment: calcium ion signal in CHO-K1 cells expressing MC2R, taken by the filing as a measure of binding

Row | binding | Binder
1 | binds | SYSMEHFRWGKPVGKKRRPVKVYPNGAEDESAEAFPLEF [high-purity ACTH (human sequence SEQ ID NO: 3, 99.88%)]
2 | binds | SYSMEHFRWGKPVGKKRRPVKVYPNGAEDESAEAFPLEF [low-purity ACTH (human sequence SEQ ID NO: 3, 75.72%)]
